This is an account of results in patent US20240316171A1, “COMPOSITIONS AND METHODS FOR TARGETED IMMUNOTHERAPY” (Dana-Farber Cancer Institute, Inc., priority 2018, published 2024).

Each structure is given as a SMILES string.

A short description of series [1]: Uncaging of compound 1 with radiation, with or without mouse EL4 cells. The settings on record: 20 μM in PBS, 5% FBS, 0-40Gy. How it is done: A 20 μM solution of compound 1 in phosphate-buffered saline (PBS), 5% fetal bovine serum (FBS) was exposed to increasing radiation doses (0-40Gy) in the absence (black bars) or in the presence (gray bars) of 300,000 mouse EL4 cells in solution (FIG. 11B). The production of fluorescence was detected with a 96-well plate reader (Excitation: 485/20, Emission: 528/20). The increase in fluorescence is detected as [(fluorescence)sample-(fluorescence)control]/(fluorescence)control. The control sample is defined as a 20 μM compound 1 in PBS, 5% FBS without exposure to radiation. Each condition was tested in triplicates.
To simulate the catalyzing effect provided by tumor cells in the generation of ROS/RNS when exposed to radiation, the compound 1 was studied in the presence or absence of auxiliary cells.

A short description of series [2]: Uncaging of compound 3 with hydrogen peroxide (fluorescence-detected HPLC). The following applies: 20 μM in 50 mM HEPES pH 7; between 1000 and 50 μM H2O2; 15 minutes reaction. How it is done: To minimalize the possibility of side reactions of the maleimide moiety in the presence of H2O2, compound 1 was allowed to react with cysteine to obtain Cys-adducts that may be more relevant to the antibody adducts of interests (See, e.g., Scheme 2). Cys-adducts were prepared for both compounds 1 and 2 (hereafter compound 3 and compound 4, respectively).
A 20 μM solution of compound 3 in 50 mM HEPES pH 7 buffer was titrated with H2O2. Production of compound 4 was monitored by fluorescence-detected HPLC after 15 minutes reaction.

For the compound `CC1(C)[C@@H]2CC3OB(c4ccc5c(c4)Oc4cc(B6OC7C[C@@H]8C[C@@H](C8(C)C)[C@]7(C)O6)ccc4C54OC(=O)c5cc(NC(=O)CCOCCOCCNC(=O)CCN6C(=O)C=CC6=O)ccc54)O[C@@]3(C)[C@H]1C2` (stereo partly drawn) [Compound 1, 3-(2,5-dioxo-2,5-dihydro-1H-pyrrol-1-yl)-N-(2-(2-(3-oxo-3-((3-oxo-3′,6′-bis((3aS,4S,6S)-3a,5,5-trimethylhexahydro-4,6-methanobenzo[d][1,3,2]dioxaborol-2-yl)-3H-spiro[isobenzofuran-1,9′-xanthen]-5-yl)amino)propoxy)ethoxy)ethyl)propanamide], the “conversion to compound 2 by ROS/RNS generated by radiation” value in series [1] is on record as “rapidly converted”. In addition, the “amount of compound 2 generated versus radiation dose and presence of cells” value in series [1] (with or without 300,000 mouse EL4 cells) was “proportional to the dose used and it was enhanced in the presence of cells in solution”. For `CC1(C)[C@@H]2C[C@H]1C1OB(c3ccc4c(c3)Oc3cc(B5OC6C[C@@H]7C[C@@H](C7(C)C)[C@]6(C)O5)ccc3C43OC(=O)c4cc(NC(=O)CCOCCOCCNC(=O)CCN5C(=O)CC(SC[C@H](N)C(=O)O)C5=O)ccc43)O[C@@]1(C)C2` (stereo partly drawn) [Compound 3, S-(2,5-dioxo-1-(3-oxo-3-((2-(2-(3-oxo-3-((3-oxo-3′-((3aS,4S,6S)-3a,5,5-trimethylhexahydro-4,6-methanobenzo[d][1,3,2]dioxaborol-2-yl)-6′-((4R,6R,7aS)-5,5,7a-trimethylhexahydro-4,6-methanobenzo[d][1,3,2]dioxaborol-2-yl)-3H-spiro[isobenzofuran-1,9′-xanthen]-5-yl)amino)propoxy)ethoxy)ethyl)amino)propyl)pyrrolidin-3-yl)cysteine], in series [2], the “production of compound 4 on H2O2 titration” value is given as “linear response”.
